Results are given in words; binding and its absence hold for the method and conditions named. In cells and extracts the contact can be indirect.

Protein sequences, listed by entry. Tags and fused reporters are not part of them. Lines headed by an entry give the natural chain unless they say otherwise; changes in a name come on top.
UniProt Q9NZC7: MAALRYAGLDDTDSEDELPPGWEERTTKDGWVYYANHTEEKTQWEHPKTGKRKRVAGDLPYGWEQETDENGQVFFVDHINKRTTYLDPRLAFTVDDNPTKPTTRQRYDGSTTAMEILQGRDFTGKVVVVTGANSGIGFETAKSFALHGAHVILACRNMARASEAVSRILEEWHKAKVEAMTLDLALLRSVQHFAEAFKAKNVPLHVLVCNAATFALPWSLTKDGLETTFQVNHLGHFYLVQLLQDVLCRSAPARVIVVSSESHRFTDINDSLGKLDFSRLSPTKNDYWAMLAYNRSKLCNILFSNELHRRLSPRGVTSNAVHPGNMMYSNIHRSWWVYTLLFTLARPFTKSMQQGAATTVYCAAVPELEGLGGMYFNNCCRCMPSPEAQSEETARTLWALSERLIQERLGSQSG
UniProt P56693: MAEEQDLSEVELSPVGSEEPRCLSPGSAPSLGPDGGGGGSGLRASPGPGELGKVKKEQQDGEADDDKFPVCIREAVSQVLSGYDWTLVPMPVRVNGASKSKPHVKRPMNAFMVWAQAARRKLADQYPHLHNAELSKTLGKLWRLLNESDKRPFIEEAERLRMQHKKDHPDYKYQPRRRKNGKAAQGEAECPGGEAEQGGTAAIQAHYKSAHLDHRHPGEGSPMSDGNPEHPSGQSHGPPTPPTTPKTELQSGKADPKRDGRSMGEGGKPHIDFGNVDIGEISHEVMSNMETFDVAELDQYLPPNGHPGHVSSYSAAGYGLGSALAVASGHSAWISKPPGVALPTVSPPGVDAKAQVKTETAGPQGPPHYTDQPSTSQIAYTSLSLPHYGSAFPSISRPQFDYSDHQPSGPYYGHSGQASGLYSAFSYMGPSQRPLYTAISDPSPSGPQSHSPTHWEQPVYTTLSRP

The values that follow come from doi:10.1101/2025.11.22.689900.

The experiment concerns the target WWOX-WFPA (WW1-domain mutant of WWOX, GST pull-down) (UniProt Q9NZC7). In words: pull-down.

Turning to “SOX10 (doxycycline-inducible plasmid, Addgene #115241) (from UniProt P56693 1-466)”, the binding result is reported as “no binding”.
